This series deals with HIBM patients. Nature of the series: Phase 2 clinical trial: baseline serum biomarker levels in 47 HIBM patients vs 126 normal controls (Human Discovery MAP250+ immunoassay). It is filed as in vivo. The conditions noted are these: for change in mean (HIBM/nomral) / change in median (HIBM/normal): fold, HIBM patients vs normal controls; for HIBM Mean / HIBM Median / Normal Mean / Normal Median: serum level; for HIBM Mean / HIBM Median: 47 HIBM patients, baseline; for Normal Mean / Normal Median: 126 normal controls.

As to Epidermal Growth Factor (EGF), where the note is “Table 12”, the “change in mean (HIBM/nomral)” value is listed as 23.55, the “change in median (HIBM/normal)” value is listed as 53.22, the “HIBM Mean” value is 0.27828 ng/mL and the “HIBM Median” value was found to be 0.248 ng/mL. Moreover, for the setting “Table 12”, the “Normal Mean” value came to 0.012 ng/mL and the “Normal Median” value was 0.0047 ng/mL. For the setting “Table 13”, the “change in mean (HIBM/nomral)” value was 23.55, the “change in median (HIBM/normal)” value is given as 53.22, the “HIBM Mean” value is 0.27828 ng/mL and the “HIBM Median” value came out at 0.248 ng/mL. For the same molecule, where the note is “Table 13”, the “Normal Mean” value was determined as 0.012 ng/mL and the “Normal Median” value was determined as 0.0047 ng/mL.
As to Creatine Kinase-MB (CK-MB), under “Table 12”, the “change in mean (HIBM/nomral)” value is 11.37, the “change in median (HIBM/normal)” value worked out at 10.90, the “HIBM Mean” value is listed as 12.36 ng/mL and the “HIBM Median” value is given as 8.70 ng/mL. Further, for the setting “Table 12”, the “Normal Mean” value is given as 1.1 ng/mL and the “Normal Median” value was determined as 0.80 ng/mL. In addition, where the note is “Table 13”, the “change in mean (HIBM/nomral)” value worked out at 11.37, the “change in median (HIBM/normal)” value is listed as 10.90, the “HIBM Mean” value is listed as 12.36 ng/mL and the “HIBM Median” value came to 8.70 ng/mL. For the same molecule, where the note is “Table 13”, the “Normal Mean” value is given as 1.1 ng/mL and the “Normal Median” value worked out at 0.80 ng/mL.
With T-Cell-Specific Protein RANTES (RANTES), where the note is “Table 12”, the “change in mean (HIBM/nomral)” value came out at 12.69, the “change in median (HIBM/normal)” value was determined as 17.14, the “HIBM Mean” value is given as 18.26 ng/mL and the “HIBM Median” value is 18.00 ng/mL. Besides, under “Table 12”, the “Normal Mean” value was determined as 1.4 ng/mL and the “Normal Median” value turned out to be 1.1 ng/mL. In addition, for the setting “Table 13”, the “change in mean (HIBM/nomral)” value stood at 12.69, the “change in median (HIBM/normal)” value was 17.14, the “HIBM Mean” value turned out to be 18.26 ng/mL and the “HIBM Median” value came out at 18.00 ng/mL. Besides, under “Table 13”, the “Normal Mean” value turned out to be 1.4 ng/mL and the “Normal Median” value came to 1.1 ng/mL.
Turning to “Brain-Derived Neurotrophic Factor (BDNF)”, under “Table 12”, the “change in mean (HIBM/nomral)” value is given as 34.58, the “change in median (HIBM/normal)” value is recorded as 50.06, the “HIBM Mean” value was found to be 19.72 ng/mL and the “HIBM Median” value came out at 20.00 ng/mL. Moreover, under “Table 12”, the “Normal Mean” value came to 0.57 ng/mL and the “Normal Median” value is given as 0.40 ng/mL. Moreover, for the setting “Table 13”, the “change in mean (HIBM/nomral)” value came out at 34.58, the “change in median (HIBM/normal)” value came to 50.06, the “HIBM Mean” value came out at 19.72 ng/mL and the “HIBM Median” value stood at 20.00 ng/mL. Further, under “Table 13”, the “Normal Mean” value was 0.57 ng/mL and the “Normal Median” value was 0.40 ng/mL.
As to “Epithelial-Derived Neutrophil-Activating Protein 78 (ENA-78)”, under “Table 12”, the “change in mean (HIBM/nomral)” value is recorded as 6.42, the “change in median (HIBM/normal)” value was determined as 6.85, the “HIBM Mean” value came to 2.46 ng/mL and the “HIBM Median” value is reported as 2.00 ng/mL. Also, where the note is “Table 12”, the “Normal Mean” value is 0.38 ng/mL and the “Normal Median” value was determined as 0.29 ng/mL. For the setting “Table 13”, the “change in mean (HIBM/nomral)” value came out at 6.42, the “change in median (HIBM/normal)” value stood at 6.85, the “HIBM Mean” value turned out to be 2.46 ng/mL and the “HIBM Median” value was 2.00 ng/mL. For the setting “Table 13”, the “Normal Mean” value came to 0.38 ng/mL and the “Normal Median” value is reported as 0.29 ng/mL.
Regarding “Latency-Associated Peptide of Transforming Growth Factor beta 1 (LAP TGF-b1)”, where the note is “Table 12”, the “change in mean (HIBM/nomral)” value is given as 9.75, the “change in median (HIBM/normal)” value turned out to be 11.14, the “HIBM Mean” value turned out to be 10.63 ng/mL and the “HIBM Median” value was 11.00 ng/mL. Moreover, for the setting “Table 12”, the “Normal Mean” value was found to be 1.1 ng/mL and the “Normal Median” value came out at 0.99 ng/mL. In addition, for the setting “Table 13”, the “change in mean (HIBM/nomral)” value was found to be 9.75, the “change in median (HIBM/normal)” value was 11.14, the “HIBM Mean” value was found to be 10.63 ng/mL and the “HIBM Median” value is 11.00 ng/mL. In addition, under “Table 13”, the “Normal Mean” value came out at 1.1 ng/mL and the “Normal Median” value was 0.99 ng/mL.
Consider Matrix Metalloproteinase-1 (MMP-1), for which, for the setting “Table 12”, the “change in mean (HIBM/nomral)” value is listed as 6.89, the “change in median (HIBM/normal)” value came out at 7.24, the “HIBM Mean” value came out at 7.93 ng/mL and the “HIBM Median” value turned out to be 6.90 ng/mL. Further, for the setting “Table 12”, the “Normal Mean” value is 1.2 ng/mL and the “Normal Median” value stood at 0.95 ng/mL. Where the note is “Table 13”, the “change in mean (HIBM/nomral)” value was 6.89, the “change in median (HIBM/normal)” value was 7.24, the “HIBM Mean” value worked out at 7.93 ng/mL and the “HIBM Median” value was 6.90 ng/mL. Moreover, for the setting “Table 13”, the “Normal Mean” value is 1.2 ng/mL and the “Normal Median” value is on record as 0.95 ng/mL.
For “Platelet-Derived Growth Factor BB (PDGF-BB)”, for the setting “Table 12”, the “change in mean (HIBM/nomral)” value amounted to 57.62, the “change in median (HIBM/normal)” value stood at 93.41, the “HIBM Mean” value is 15.63191 ng/mL and the “HIBM Median” value turned out to be 15.6 ng/mL. Moreover, where the note is “Table 12”, the “Normal Mean” value was 0.271 ng/mL and the “Normal Median” value worked out at 0.167 ng/mL. Besides, under “Table 13”, the “change in mean (HIBM/nomral)” value is given as 57.62, the “change in median (HIBM/normal)” value was found to be 93.41, the “HIBM Mean” value came out at 15.63191 ng/mL and the “HIBM Median” value is 15.6 ng/mL. Moreover, under “Table 13”, the “Normal Mean” value came to 0.271 ng/mL and the “Normal Median” value is 0.167 ng/mL.
Take Hepatocyte Growth Factor (HGF): for the setting “Table 12”, the “change in mean (HIBM/nomral)” value is given as 4.59, the “change in median (HIBM/normal)” value came to 5.04, the “HIBM Mean” value is reported as 14.18 ng/mL and the “HIBM Median” value was 13.00 ng/mL. In addition, for the setting “Table 12”, the “Normal Mean” value amounted to 3.1 ng/mL and the “Normal Median” value is reported as 2.6 ng/mL. Also, under “Table 13”, the “change in mean (HIBM/nomral)” value is given as 4.59, the “change in median (HIBM/normal)” value was found to be 5.04, the “HIBM Mean” value amounted to 14.18 ng/mL and the “HIBM Median” value was 13.00 ng/mL. For the same molecule, where the note is “Table 13”, the “Normal Mean” value turned out to be 3.1 ng/mL and the “Normal Median” value turned out to be 2.6 ng/mL.
For “Receptor tyrosine-protein kinase erbB-3 (ErbB3)”, for the setting “Table 12”, the “change in mean (HIBM/nomral)” value is recorded as 0.29, the “change in median (HIBM/normal)” value is 0.14, the “HIBM Mean” value was 0.62 ng/mL and the “HIBM Median” value is reported as 0.31 ng/mL. Moreover, under “Table 12”, the “Normal Mean” value came to 2.2 ng/mL and the “Normal Median” value is on record as 2.3 ng/mL. Where the note is “Table 13”, the “change in mean (HIBM/nomral)” value is on record as 0.29, the “change in median (HIBM/normal)” value is reported as 0.14, the “HIBM Mean” value is 0.62 ng/mL and the “HIBM Median” value stood at 0.31 ng/mL. Further, where the note is “Table 13”, the “Normal Mean” value was 2.2 ng/mL and the “Normal Median” value is 2.3 ng/mL.
For Thrombospondin-1, for the setting “Table 12”, the “change in mean (HIBM/nomral)” value was determined as 11.19, the “change in median (HIBM/normal)” value is 16.34, the “HIBM Mean” value came out at 9800.64 ng/mL and the “HIBM Median” value is recorded as 9540.00 ng/mL. For the setting “Table 12”, the “Normal Mean” value was 876 ng/mL and the “Normal Median” value is on record as 584 ng/mL. Moreover, for the setting “Table 13”, the “change in mean (HIBM/nomral)” value is 11.19, the “change in median (HIBM/normal)” value amounted to 16.34, the “HIBM Mean” value is 9800.64 ng/mL and the “HIBM Median” value was determined as 9540.00 ng/mL. In addition, for the setting “Table 13”, the “Normal Mean” value is on record as 876 ng/mL and the “Normal Median” value is 584 ng/mL.

B1: Vascular Endothelial Growth Factor C (VEGF-C) (protein, UniProt P49767 112-227, looked up)
Vascular endothelial growth …: AHYNTEILKSIDNEWRKTQCMPREVCIDVGKEFGVATNTFFKPPCVSVYRCGGCCNSEGLQCMNTSTSYLSKTLFEITVPLSQGPKPVTISFANHTSCRCMSKLDVYRQVHSIIRR
With B1, where the note is “Table 12”, the “change in mean (HIBM/nomral)” value worked out at 9.07, the “change in median (HIBM/normal)” value was found to be 9.60, the “HIBM Mean” value turned out to be 35.32 ng/mL and the “HIBM Median” value turned out to be 36.00 ng/mL. Moreover, where the note is “Table 12”, the “Normal Mean” value was determined as 3.9 ng/mL and the “Normal Median” value came to 3.8 ng/mL. For the same molecule, where the note is “Table 13”, the “change in mean (HIBM/nomral)” value was determined as 9.07, the “change in median (HIBM/normal)” value is 9.60, the “HIBM Mean” value is reported as 35.32 ng/mL and the “HIBM Median” value is recorded as 36.00 ng/mL. Besides, under “Table 13”, the “Normal Mean” value turned out to be 3.9 ng/mL and the “Normal Median” value stood at 3.8 ng/mL.

B2: Myoglobin (protein, UniProt P02144 2-154, looked up)
Myoglobin: GLSDGEWQLVLNVWGKVEADIPGHGQEVLIRLFKGHPETLEKFDKFKHLKSEDEMKASEDLKKHGATVLTALGGILKKKGHHEAEIKPLAQSHATKHKIPVKYLEFISECIIQVLQSKHPGDFGADAQGAMNKALELFRKDMASNYKELGFQG
Consider B2, for which, for the setting “Table 12”, the “change in mean (HIBM/nomral)” value worked out at 10.16, the “change in median (HIBM/normal)” value was 8.81, the “HIBM Mean” value is given as 152.09 ng/mL and the “HIBM Median” value was found to be 100.00 ng/mL. Further, for the setting “Table 12”, the “Normal Mean” value is listed as 15 ng/mL and the “Normal Median” value is given as 11 ng/mL. Where the note is “Table 13”, the “change in mean (HIBM/nomral)” value was 10.16, the “change in median (HIBM/normal)” value is 8.81, the “HIBM Mean” value is given as 152.09 ng/mL and the “HIBM Median” value came to 100.00 ng/mL. Also, under “Table 13”, the “Normal Mean” value is listed as 15 ng/mL and the “Normal Median” value stood at 11 ng/mL.

(Values after patent publication US20140113876A1, “BIOMARKERS FOR ASSESSING TREATMENT OF SIALIC ACID DEFICIENCY DISEASES AND CONDITIONS” (ULTRAGENYX PHARMACEUTICAL INC., priority 2012, published 2014).)
